Experimental data: ChEMBL document CHEMBL1152373, “Synthesis and antimultidrug resistance evaluation of icariin and its derivatives” (Bioorg Med Chem Lett, 2009)

System: MCF7
Experiment: Cytotoxicity against human MCF7 cells after 72 hrs […]
Assay type: functional, cell-based
Conditions: MCF7, 72 h

COc1cccc2c1C(=O)c1c(O)c3c(c(O)c1C2=O)C[C@@](O)(C(=O)CO)C[C@@H]3O[C@H]1C[C@H](N)[C@H](O)[C@H](C)O1 [DOXORUBICIN]
IC50: 0.53 µM
